Data as given in PubChem BioAssay AID1259425 (University of Nebraska Medical Center, 2018)
Shown is an unselected part of about 14,000 reagents. Reagents against one gene are numbered here. Some reagents were tested in more than one well and are listed for each. No sequences are given here. Not given: the time to read-out.

- Screen: 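Seek colon cancer weak points whose silencing resembles KSR1 loss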 (primary screen)
- Cells: HCT116 human colon cancer cells
- Reagent: siRNA pool against human genes, 50 nM siRNA
- Measurement: 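After 50 nM siRNA pool, branched-DNA assay measures six marker transcripts per well, minus blank, normalised to the geometric mean of two housekeeping transcripts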
- Reading the numbers: BNIP3L mRNA: higher = more BNIP3L transcript after knockdown; NDRG1 mRNA: higher = more NDRG1 transcript after knockdown; BNIP3 mRNA: higher = more BNIP3 transcript after knockdown; ALDOC mRNA: higher = more ALDOC transcript after knockdown; ACSL5 mRNA: higher = more ACSL5 transcript after knockdown

no.	Target gene	reagent	BNIP3L mRNA, set 1	NDRG1 mRNA, set 1	BNIP3 mRNA, set 1	ALDOC mRNA, set 1	ACSL5 mRNA, set 1
1	H4C2 (GeneID 8366)	1	0.0946	0.138	0.291	0.0205	0.134
2	IL7 (GeneID 3574)	1	0.107	0.118	0.302	0.0352	0.088
3	ACER3 (GeneID 55331)	1	0.0573	0.216	0.405	0.0311	0.156
4	MAP3K14 (GeneID 9020)	1	0.116	0.0612	0.321	0.0143	0.0278
5	KRT2 (GeneID 3849)	1	0.138	0.241	0.462	0.0178	0.204
6	RNF125 (GeneID 54941)	1	0.082	0.142	0.22	0.021	0.203
7	MORN1 (GeneID 79906)	1	0.175	0.141	0.306	0.0464	0.228
8	PCMTD2 (GeneID 55251)	1	0.0531	0.119	0.219	0.0389	0.117
9	EIF5B (GeneID 9669)	1	0.137	0.143	0.261	0.0463	0.07
10	ACOT12 (GeneID 134526)	1	0.0848	0.116	0.307	0.0248	0.323
11	H3-3A (GeneID 3020)	1	0.193	0.0806	0.341	0.0291	0.064
12	TIMP3 (GeneID 7078)	1	0.0341	0.113	0.251	0.0286	0.141
13	LRRC59 (GeneID 55379)	1	0.107	0.765	0.479	0.000726	0.343
14	PGM2 (GeneID 55276)	1	0.165	0.122	0.379	0.0382	0.338
15	MCMBP (GeneID 79892)	1	0.117	0.187	0.243	0.0356	0.253
16	TNPO2 (GeneID 30000)	1	0.156	0.439	0.41	0.0378	0.139
17	TNPO2 (GeneID 30000)	1	0.141	0.232	0.339	0.0387	0.117
18	IRAK2 (GeneID 3656)	1	0.0915	0.254	0.57	0.00805	0.28
19	SLC25A31 (GeneID 83447)	1	0.269	0.286	0.325	0.157	0.415
20	VANGL1 (GeneID 81839)	1	0.125	0.162	0.29	0.0655	0.181
21	SKIL (GeneID 6498)	1	0.17	0.524	0.343	0.0194	0.214
22	SOX1 (GeneID 6656)	1	0.252	1.46	0.43	0.0471	0.321

Look-ups from the entries so far:
Result of MORN1 (GeneID 79906) under “ACSL5 mRNA, set 1”: 0.228
ACOT12 (GeneID 134526), BNIP3 mRNA, set 1 = 0.307
Under “BNIP3 mRNA, set 1”, SLC25A31 (GeneID 83447) is entered as 0.325
Under “BNIP3L mRNA, set 1”, ACER3 (GeneID 55331) has 0.0573
Under “NDRG1 mRNA, set 1”, MCMBP (GeneID 79892) has 0.187

Additional results follow:
no.	Target gene	reagent	BNIP3L mRNA, set 1	NDRG1 mRNA, set 1	BNIP3 mRNA, set 1	ALDOC mRNA, set 1	ACSL5 mRNA, set 1
23	GATB (GeneID 5188)	1	0.0852	0.19	0.243	0.0206	0.154
24	ADGRL4 (GeneID 64123)	1	0.206	0.159	0.302	0.0663	0.249
25	GTF3C3 (GeneID 9330)	1	0.223	0.0705	0.351	0.0212	0.109
26	PEX3 (GeneID 8504)	1	0.091	0.233	0.267	0.0482	0.176
27	NUDT13 (GeneID 25961)	1	0.126	0.796	0.452	0.0224	0.163
28	CDK10 (GeneID 8558)	1	0.134	0.171	0.481	0.00481	0.195
29	DLG1 (GeneID 1739)	1	0.124	0.192	0.183	0.00973	0.28
30	SETBP1 (GeneID 26040)	1	0.0929	0.323	0.642	0.0464	0.308
31	DLD (GeneID 1738)	1	0.0748	0.107	0.331	0.027	0.138
32	NTMT1 (GeneID 28989)	1	0.143	0.202	0.323	0.0292	0.22
33	SLC22A23 (GeneID 63027)	1	0.0963	0.182	0.186	0.00783	0.184
34	SLC22A23 (GeneID 63027)	2	0.176	0.228	0.514	0.0264	0.117
